# From publication PMC12777490
# The chains behind the UniProt entries cited, without tags or fusion partners.
# UniProt Q16637: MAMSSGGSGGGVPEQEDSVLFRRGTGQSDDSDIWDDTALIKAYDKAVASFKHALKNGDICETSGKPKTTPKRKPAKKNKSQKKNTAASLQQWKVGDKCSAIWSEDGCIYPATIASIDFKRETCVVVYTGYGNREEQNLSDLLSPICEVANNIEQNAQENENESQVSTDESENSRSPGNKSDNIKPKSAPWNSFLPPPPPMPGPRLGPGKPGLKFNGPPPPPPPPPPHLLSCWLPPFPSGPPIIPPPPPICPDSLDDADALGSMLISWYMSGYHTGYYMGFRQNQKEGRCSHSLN
# UniProt O14893: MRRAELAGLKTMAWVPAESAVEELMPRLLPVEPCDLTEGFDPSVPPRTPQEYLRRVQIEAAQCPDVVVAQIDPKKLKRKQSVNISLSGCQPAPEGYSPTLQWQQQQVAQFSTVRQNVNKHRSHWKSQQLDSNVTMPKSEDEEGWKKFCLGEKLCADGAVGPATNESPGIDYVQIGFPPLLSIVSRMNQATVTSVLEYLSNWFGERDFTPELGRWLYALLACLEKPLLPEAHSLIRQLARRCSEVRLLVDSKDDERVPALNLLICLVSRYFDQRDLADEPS
# UniProt Q9UHI6: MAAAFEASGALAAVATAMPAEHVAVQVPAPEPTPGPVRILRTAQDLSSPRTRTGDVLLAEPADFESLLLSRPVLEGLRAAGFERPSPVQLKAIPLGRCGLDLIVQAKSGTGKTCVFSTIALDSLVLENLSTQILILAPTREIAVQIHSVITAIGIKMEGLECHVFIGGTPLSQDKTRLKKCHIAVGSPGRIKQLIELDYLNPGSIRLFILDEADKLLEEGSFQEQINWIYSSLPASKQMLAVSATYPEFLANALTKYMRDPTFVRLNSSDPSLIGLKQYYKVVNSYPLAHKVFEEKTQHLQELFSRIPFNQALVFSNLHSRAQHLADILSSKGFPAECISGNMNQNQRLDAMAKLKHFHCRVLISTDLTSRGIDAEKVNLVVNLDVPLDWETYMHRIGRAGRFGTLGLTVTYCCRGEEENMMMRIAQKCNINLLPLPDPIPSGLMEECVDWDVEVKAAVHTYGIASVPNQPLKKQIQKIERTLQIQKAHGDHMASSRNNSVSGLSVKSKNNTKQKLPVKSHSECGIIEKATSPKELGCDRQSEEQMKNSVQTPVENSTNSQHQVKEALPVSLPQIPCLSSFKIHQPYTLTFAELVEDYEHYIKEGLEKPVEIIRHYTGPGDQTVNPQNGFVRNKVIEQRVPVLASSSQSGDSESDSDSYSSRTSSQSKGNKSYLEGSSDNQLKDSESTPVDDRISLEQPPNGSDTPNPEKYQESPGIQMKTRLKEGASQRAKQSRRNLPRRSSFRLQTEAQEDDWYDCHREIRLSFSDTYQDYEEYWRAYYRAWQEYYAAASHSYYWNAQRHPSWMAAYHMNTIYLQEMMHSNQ
# UniProt Q8TEQ6: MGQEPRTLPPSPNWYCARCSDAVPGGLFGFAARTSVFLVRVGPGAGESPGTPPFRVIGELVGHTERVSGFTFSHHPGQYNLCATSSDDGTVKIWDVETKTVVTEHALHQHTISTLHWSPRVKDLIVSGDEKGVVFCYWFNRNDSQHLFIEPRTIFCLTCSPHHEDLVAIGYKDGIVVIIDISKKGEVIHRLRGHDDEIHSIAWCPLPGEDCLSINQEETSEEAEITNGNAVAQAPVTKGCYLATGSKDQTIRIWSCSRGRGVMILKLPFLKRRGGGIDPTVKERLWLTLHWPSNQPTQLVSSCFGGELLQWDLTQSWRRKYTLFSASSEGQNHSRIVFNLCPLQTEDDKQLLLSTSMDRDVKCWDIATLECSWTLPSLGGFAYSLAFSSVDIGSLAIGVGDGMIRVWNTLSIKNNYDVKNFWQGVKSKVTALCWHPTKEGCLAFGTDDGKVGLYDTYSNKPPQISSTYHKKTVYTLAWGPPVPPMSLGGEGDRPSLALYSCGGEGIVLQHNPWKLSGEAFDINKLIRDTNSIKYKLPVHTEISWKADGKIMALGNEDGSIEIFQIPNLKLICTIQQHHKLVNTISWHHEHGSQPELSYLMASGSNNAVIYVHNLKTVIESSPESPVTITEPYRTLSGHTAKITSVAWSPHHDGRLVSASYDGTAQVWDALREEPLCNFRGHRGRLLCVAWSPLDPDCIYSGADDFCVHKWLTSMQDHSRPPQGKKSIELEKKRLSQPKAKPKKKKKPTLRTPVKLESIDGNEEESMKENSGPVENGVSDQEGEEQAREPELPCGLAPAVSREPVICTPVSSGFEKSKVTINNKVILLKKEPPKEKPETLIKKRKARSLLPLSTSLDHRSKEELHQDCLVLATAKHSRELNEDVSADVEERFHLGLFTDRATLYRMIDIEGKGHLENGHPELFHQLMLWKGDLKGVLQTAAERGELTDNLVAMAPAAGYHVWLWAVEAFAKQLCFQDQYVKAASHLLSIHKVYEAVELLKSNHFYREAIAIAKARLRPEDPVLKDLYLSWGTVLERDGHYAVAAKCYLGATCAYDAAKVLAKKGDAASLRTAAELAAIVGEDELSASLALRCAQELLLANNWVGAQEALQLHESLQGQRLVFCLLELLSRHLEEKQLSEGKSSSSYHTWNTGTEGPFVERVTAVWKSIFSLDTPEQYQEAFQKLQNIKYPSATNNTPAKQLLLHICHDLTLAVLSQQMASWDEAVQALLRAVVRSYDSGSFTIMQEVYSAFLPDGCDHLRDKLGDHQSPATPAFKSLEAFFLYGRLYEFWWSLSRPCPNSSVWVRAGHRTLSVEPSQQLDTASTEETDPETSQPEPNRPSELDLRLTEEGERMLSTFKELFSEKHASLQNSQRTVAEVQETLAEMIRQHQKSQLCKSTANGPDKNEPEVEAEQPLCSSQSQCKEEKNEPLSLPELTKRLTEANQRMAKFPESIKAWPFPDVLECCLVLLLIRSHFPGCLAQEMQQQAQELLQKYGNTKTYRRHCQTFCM
# UniProt Q9H840: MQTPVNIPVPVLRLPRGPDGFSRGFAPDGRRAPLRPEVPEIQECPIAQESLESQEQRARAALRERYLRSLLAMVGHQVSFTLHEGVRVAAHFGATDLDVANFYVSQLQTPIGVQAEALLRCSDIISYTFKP
# UniProt Q8WXD5: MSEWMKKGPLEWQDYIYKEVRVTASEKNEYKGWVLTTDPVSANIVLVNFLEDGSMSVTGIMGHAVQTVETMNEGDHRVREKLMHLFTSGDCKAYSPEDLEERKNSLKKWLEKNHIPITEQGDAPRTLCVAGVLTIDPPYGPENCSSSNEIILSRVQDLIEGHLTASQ
# These are yes or no findings as the source states them, for the method shown. Binding seen in cells or lysates may run through a third protein. Some results given as binding are weak or reduced against the parent protein; the word gives no strength.
# Biological target: SBP-tagged SMN1 protein (UniProt Q16637)
# Test: pull-down; SBP-tagged SMN1 co-transfected with the other SMN constituent proteins without a tag in HEK293T; cleared lysate (TBS, 1% Triton X-100) incubated with Dynabeads M-280 Streptavidin for 30 min, washed, eluted by boiling in SDS sample buffer; SDS-PAGE, Strep-Tactin HRP blot and silver staining beside lysates expressing single proteins
row,Substance,binding
1,Gemin2 (from UniProt O14893 1-280),binds
2,Gemin3 (from UniProt Q9UHI6 1-824),binds
3,Gemin5 (from UniProt Q8TEQ6 1-1508),binds

# The next lines start with the values.
row,binding,Substance
1,binds,Gemin7 (from UniProt Q9H840 1-131)
2,binds,Gemin6 (from UniProt Q8WXD5 1-167)
